Source: patent US11530240B2, “Catheter injectable cyclic peptide pro-gelators for myocardial tissue engineering” (The Regents of the University of California, priority 2017, dated 2022)

Assay: Experimental circular dichroism (CD) of SAPs
Type: physicochemical
Conditions: 500 μM SAP in 10 mM Tris, pH 7.4

| Substance | Obs. CD Inference (β-sheet orientation) | Obs. CD π→π* Peak |
| --- | --- | --- |
| (KFDF)3 (SEQ ID NO: 4) (KFDFKFDFKFDF) [KFDF (SEQ ID NO:1), unmodified SAP, analogue of KLDL with Phe for Leu] | Antiparallel |  |
| (KLDL)3 (SEQ ID NO: 3) (KLDLKLDLKLDL) [KLDL (SEQ ID NO:5), reference compound] | antiparallel |  |
| C(KFDF)3PLGLAGC (SEQ ID NO: 7) (CKFDFKFDFKFDFPLGLAGC) [KFDF (SEQ ID NO:1)Linear, modified linear SAP primed for cyclization, no fluorescent label] | parallel | Blue-shifted |
| C(KLDL)3PLGLAGC (SEQ ID NO: 6) (CKLDLKLDLKLDLPLGLAGC) [KLDL (SEQ ID NO:5)Linear, modified linear SAP primed for cyclization, no fluorescent label] | Parallel | Blue-shifted |
| LAG(KFDF)3PLG (SEQ ID NO: 9) (LAGKFDFKFDFKFDFPLG) [KFDF (SEQ ID NO:1)Control, control SAP representing enzymatically cleaved progelator with flanking substrate residues] | Parallel | Blue-shifted |
| LAG(KLDL)3PLG (SEQ ID NO: 8) (LAGKLDLKLDLKLDLPLG) [KLDL (SEQ ID NO:5)Control, control SAP representing enzymatically cleaved progelator with flanking substrate residues] | Parallel | Blue-shifted |
